From US20180222982A1
Results are given in words; binding and its absence hold for the method and conditions named. Some entries that bind do so weakly or less than the wild type.

The chains behind the UniProt entries cited, without tags or fusion partners. Residues count along the entry.
UniProt Q15116, residues 25-288: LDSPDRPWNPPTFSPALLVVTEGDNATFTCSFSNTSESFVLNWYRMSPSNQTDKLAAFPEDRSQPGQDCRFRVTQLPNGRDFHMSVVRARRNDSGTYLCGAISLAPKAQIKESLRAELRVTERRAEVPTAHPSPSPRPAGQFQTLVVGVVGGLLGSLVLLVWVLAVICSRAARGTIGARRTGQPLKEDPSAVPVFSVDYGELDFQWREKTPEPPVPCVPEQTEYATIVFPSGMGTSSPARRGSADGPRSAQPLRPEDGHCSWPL

What was measured:
[1] = target: human PD-1 expressed on cells (human) (UniProt Q15116); experiment: FACS competition with fluorescently labelled murine mAb BAP049 on PD-1 expressing Jurkat cells, second run
[2] = target: human PD-1 expressed on cells (human) (UniProt Q15116); experiment: FACS competition with fluorescently labelled murine mAb BAP049 on PD-1 expressing Jurkat cells, first run
[3] = target: human PD-1 expressed on cells (human) (UniProt Q15116); experiment: FACS blocking assay: constant PD-L1-huIgG1 Fc (PD-L1-Ig), serial dilutions of the mAb, PD-1-expressing 300.19 cells, bound ligand detected with PE anti-human IgG F(ab')2; the legend paragraph 184 names 'PD-L1-Ig and PD-L2-Ig' for FIG. 8A
[4] = target: human PD-1 expressed on cells (human) (UniProt Q15116); experiment: FACS blocking assay: constant PD-L2-huIgG1 Fc (PD-L2-Ig), serial dilutions of the mAb, PD-1-expressing 300.19 cells, bound ligand detected with PE anti-human IgG F(ab')2
[5] = target: human PD-1 expressed on cells (human) (UniProt Q15116); experiment: flow cytometry competition against PD-L1-huIgG1 Fc and PD-L2-huIgG1 Fc on PD-1-expressing 300.19 cells
[6] = target: human PD-1 expressed on cells (human) (UniProt Q15116); experiment: FACS competition: constant Alexa 488-labelled murine mAb BAP049, serial dilutions of the test mAb, PD-1-expressing 300.19 cells, Experiment 2; x axis is the ratio conc. test mAb / conc. labelled murine mAb
[7] = target: human PD-1 expressed on cells (human) (UniProt Q15116); experiment: FACS competition: constant Alexa 488-labelled murine mAb BAP049, serial dilutions of the test mAb, PD-1-expressing 300.19 cells, Experiment 1; x axis is the ratio conc. test mAb / conc. labelled murine mAb
[8] = target: human PD-1 expressed on cells (human) (UniProt Q15116); experiment: competition with labeled murine BAP049 on PD-1 expressing Jurkat cells

Measured: binding

B1: murine anti-PD-1 monoclonal antibody BAP049 (antibody, V domains shown)
VH: QVQLQQSGSELVRPGASVKLSCKASGYTFTTYWMHWVRQRPGQGLEWIGNIYPGTGGSNFDEKFKNRTSLTVDTSSTTAYMHLASLTSEDSAVYYCTRWTTGTGAYWGQGTLVTVSA
VL: DIVMTQSPSSLTVTAGEKVTMSCKSSQSLLDSGNQKNFLTWYQQKPGQPPKLLIFWASTRESGVPDRFTGSGSVTDFTLTISSVQAEDLAVYYCQNDYSYPCTFGGGTKLEIK
binds: [1] | [2] | [3] | [4] | [5] | [6]

B2: chimeric anti-PD-1 antibody BAP049-chi (Tyr) (antibody, human IgG4 S228P, kappa, V domains shown)
VH: QVQLQQSGSELVRPGASVKLSCKASGYTFTTYWMHWVRQRPGQGLEWIGNIYPGTGGSNFDEKFKNRTSLTVDTSSTTAYMHLASLTSEDSAVYYCTRWTTGTGAYWGQGTTVTVSS
VL: DIVMTQSPSSLTVTAGEKVTMSCKSSQSLLDSGNQKNFLTWYQQKPGQPPKLLIFWASTRESGVPDRFTGSGSVTDFTLTISSVQAEDLAVYYCQNDYSYPYTFGQGTKVEIKR
binds: [7] | [1] | [2] | [3] | [4] | [8] | [5] | [6]

B3: chimeric anti-PD-1 antibody BAP049-chi (Cys) (antibody, human IgG4 S228P, kappa, V domains shown)
VH: QVQLQQSGSELVRPGASVKLSCKASGYTFTTYWMHWVRQRPGQGLEWIGNIYPGTGGSNFDEKFKNRTSLTVDTSSTTAYMHLASLTSEDSAVYYCTRWTTGTGAYWGQGTTVTVSS
VL: DIVMTQSPSSLTVTAGEKVTMSCKSSQSLLDSGNQKNFLTWYQQKPGQPPKLLIFWASTRESGVPDRFTGSGSVTDFTLTISSVQAEDLAVYYCQNDYSYPCTFGQGTKVEIKR
binds: [1] | [2] | [8]

B4: chimeric anti-PD-1 antibody BAP049-chi (Ser) (antibody, human IgG4 S228P, kappa, V domains shown)
VH: QVQLQQSGSELVRPGASVKLSCKASGYTFTTYWMHWVRQRPGQGLEWIGNIYPGTGGSNFDEKFKNRTSLTVDTSSTTAYMHLASLTSEDSAVYYCTRWTTGTGAYWGQGTTVTVSS
VL: DIVMTQSPSSLTVTAGEKVTMSCKSSQSLLDSGNQKNFLTWYQQKPGQPPKLLIFWASTRESGVPDRFTGSGSVTDFTLTISSVQAEDLAVYYCQNDYSYPSTFGQGTKVEIKR
binds: [1] | [2] | [8]
